Test system: 5′ GMP
Assay: 1H NMR reaction with nucleotides

SMILES | Adduct formation with 5′ GMP (1H NMR)
O=C1[O][Pt]2([NH][C@@H]3CCCC[C@H]3[NH]2)[O]C1=O [oxaliplatin, reference compound] | Pt-GMP adduct formation
CC(C)CCC[C@@H](C)[C@H]1CCC2C3CC=C4C[C@@H](OCCN(CC(=O)[O-])CC(=O)[O][Pt+]5[NH][C@@H]6CCCC[C@H]6[NH]5)CC[C@]4(C)C3CC[C@@]21C (some centres unmarked) [Compound 1] | does not react with DNA nucleotide
